Results published in article PMC3265468.
No constants are given. Whether binding was seen depends on the method and setting. Binding seen in cells or lysates may run through a third protein. A result given as binding can be weak or reduced; the word gives no strength. For part of these data: Where a sequence is shown, tags or fusion partners need not be part of it.

How the values were obtained:
Polo-GFP (Drosophila) = target: T1, Polo-GFP (Drosophila) (UniProt P52304); test: co-IP; anti-GFP crosslinked to protein G Dynabeads, lysates of D-Mel2 lines stably expressing Polo-GFP or Aurora B-GFP, 1 h at 4°C; INCENP detected by immunoblotting
T1 sequence: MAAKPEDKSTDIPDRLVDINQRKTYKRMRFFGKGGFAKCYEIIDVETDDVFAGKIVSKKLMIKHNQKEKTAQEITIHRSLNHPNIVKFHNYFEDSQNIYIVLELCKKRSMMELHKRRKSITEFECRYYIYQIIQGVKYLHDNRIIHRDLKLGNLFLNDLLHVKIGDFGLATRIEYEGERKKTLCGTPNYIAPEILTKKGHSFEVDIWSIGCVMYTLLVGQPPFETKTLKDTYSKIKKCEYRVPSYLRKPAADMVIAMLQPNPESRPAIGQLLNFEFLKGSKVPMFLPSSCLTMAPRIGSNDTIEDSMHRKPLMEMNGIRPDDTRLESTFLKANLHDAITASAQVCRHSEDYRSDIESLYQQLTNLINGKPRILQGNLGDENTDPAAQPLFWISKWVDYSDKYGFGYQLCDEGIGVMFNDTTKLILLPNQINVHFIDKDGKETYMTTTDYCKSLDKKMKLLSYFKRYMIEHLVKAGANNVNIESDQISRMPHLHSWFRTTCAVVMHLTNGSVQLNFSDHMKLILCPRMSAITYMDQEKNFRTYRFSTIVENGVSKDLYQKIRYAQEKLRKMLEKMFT

[1] = target: GST tagged full-length Drosophila Incenp (Drosophila); test: pull-down; GST-INCENP mixed with in vitro translated 35S labelled proteins, then glutathione beads; bound proteins detected by SDS-PAGE; binding buffer 50 mM Tris pH 7.5, 10 mM MgCl2, 1 mM EGTA, 1 mM DTT, 0.1% Triton X-100; only the target purified
[2] = target: INCENP (endogenous, Drosophila cultured cells) (Drosophila (endogenous in DMel-2)); test: proximity ligation; Duolink PLA on fixed DMel-2 cells with pairs of primary antibodies against the two proteins

## INCENP (endogenous, Drosophila cultured cells)
Polo-GFP (Drosophila)
  binding: binds

B1: in vitro translated 35S labelled Aurora B (enzyme, UniProt Q9VKN7 1-329)
chain: MTLSRAKHANRNHLPHLLAKVPEEHQEPIKNMCLKMMSHDAYGQPYDWSPRDFEMGAHLGRGKFGRVYLARERHSHYLVAMKVMFKEELRKGCVQRQVLREIEIQSRLKHPHILRLLTWFHDESRIYLALEIASEGELFKHLRGAPNHRFDEPRSAKYTYQVANALNYCHLNNVIHRDLKPENILLTSTDDLKLADFGWSAHTPNNKRRTLCGTLDYLPPEMVDGNSYDDSVDQWCLGILCYEFVVGCPPFESNSTESTYSKIRRMEISYPSHLSKGCKELIGGLLRKESKGRITLVDVMTHYWVKAGMAERELQLQKRERGKENTARN
modifications: 35S labelled
[1]
  binding: binds

B2: Aurora B (endogenous, Drosophila cultured cells) (enzyme, UniProt Q9VKN7 1-329)
chain: MTLSRAKHANRNHLPHLLAKVPEEHQEPIKNMCLKMMSHDAYGQPYDWSPRDFEMGAHLGRGKFGRVYLARERHSHYLVAMKVMFKEELRKGCVQRQVLREIEIQSRLKHPHILRLLTWFHDESRIYLALEIASEGELFKHLRGAPNHRFDEPRSAKYTYQVANALNYCHLNNVIHRDLKPENILLTSTDDLKLADFGWSAHTPNNKRRTLCGTLDYLPPEMVDGNSYDDSVDQWCLGILCYEFVVGCPPFESNSTESTYSKIRRMEISYPSHLSKGCKELIGGLLRKESKGRITLVDVMTHYWVKAGMAERELQLQKRERGKENTARN
[2]
  binding: binds
